In paper PMC10709142:
These are yes or no findings as the source states them, for the method shown. Binding seen in cells or lysates may run through a third protein. Some binding calls cover weakened binding; strength is not graded here.

Protein sequences, listed by entry. Tags and fused reporters are not part of them.
UniProt O75444: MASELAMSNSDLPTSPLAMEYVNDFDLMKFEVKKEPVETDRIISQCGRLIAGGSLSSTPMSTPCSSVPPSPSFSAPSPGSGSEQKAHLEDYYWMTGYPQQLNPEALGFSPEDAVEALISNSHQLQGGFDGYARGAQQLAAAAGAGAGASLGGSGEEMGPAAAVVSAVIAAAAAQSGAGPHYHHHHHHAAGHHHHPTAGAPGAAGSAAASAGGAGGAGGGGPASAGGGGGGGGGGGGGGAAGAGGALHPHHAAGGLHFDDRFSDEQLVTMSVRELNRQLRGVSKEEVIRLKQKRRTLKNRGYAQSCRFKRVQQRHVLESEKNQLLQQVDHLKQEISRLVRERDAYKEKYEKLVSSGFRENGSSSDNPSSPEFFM
UniProt Q9Y6Q9: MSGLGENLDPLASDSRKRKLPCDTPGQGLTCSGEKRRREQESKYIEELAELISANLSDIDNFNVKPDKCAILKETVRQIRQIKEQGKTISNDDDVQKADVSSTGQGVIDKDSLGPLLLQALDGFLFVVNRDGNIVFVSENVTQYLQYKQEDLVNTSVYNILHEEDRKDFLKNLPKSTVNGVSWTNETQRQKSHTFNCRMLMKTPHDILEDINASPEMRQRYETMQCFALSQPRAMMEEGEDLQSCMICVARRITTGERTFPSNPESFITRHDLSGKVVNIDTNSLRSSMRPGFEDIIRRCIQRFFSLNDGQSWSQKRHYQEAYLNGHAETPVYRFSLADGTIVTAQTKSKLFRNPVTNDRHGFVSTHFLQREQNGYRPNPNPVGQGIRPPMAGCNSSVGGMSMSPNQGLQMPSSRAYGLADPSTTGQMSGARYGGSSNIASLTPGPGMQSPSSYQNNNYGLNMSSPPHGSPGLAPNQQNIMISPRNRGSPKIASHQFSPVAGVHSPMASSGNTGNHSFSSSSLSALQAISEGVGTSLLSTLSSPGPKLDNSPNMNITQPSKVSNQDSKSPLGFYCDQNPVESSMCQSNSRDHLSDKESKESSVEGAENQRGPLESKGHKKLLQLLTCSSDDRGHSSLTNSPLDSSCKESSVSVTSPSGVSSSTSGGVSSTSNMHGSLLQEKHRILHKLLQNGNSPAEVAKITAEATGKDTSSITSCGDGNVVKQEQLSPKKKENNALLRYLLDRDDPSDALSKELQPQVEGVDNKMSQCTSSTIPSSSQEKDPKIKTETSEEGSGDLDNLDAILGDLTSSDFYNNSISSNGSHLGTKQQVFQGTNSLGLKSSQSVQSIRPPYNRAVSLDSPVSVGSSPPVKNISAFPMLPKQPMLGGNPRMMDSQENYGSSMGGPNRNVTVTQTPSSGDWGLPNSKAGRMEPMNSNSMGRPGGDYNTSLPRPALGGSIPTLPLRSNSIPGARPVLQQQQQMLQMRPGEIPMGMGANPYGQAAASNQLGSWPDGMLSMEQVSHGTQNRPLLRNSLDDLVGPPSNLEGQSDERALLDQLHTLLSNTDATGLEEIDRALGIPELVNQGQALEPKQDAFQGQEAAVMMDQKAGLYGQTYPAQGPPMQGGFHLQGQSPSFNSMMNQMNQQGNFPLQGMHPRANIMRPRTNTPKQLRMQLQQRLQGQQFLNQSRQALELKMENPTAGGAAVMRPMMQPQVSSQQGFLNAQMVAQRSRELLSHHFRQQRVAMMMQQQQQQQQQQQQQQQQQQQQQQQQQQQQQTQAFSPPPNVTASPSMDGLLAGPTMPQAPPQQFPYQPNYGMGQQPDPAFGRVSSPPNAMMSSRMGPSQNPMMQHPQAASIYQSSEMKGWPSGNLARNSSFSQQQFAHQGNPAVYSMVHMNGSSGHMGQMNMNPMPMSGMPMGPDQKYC
UniProt O75376: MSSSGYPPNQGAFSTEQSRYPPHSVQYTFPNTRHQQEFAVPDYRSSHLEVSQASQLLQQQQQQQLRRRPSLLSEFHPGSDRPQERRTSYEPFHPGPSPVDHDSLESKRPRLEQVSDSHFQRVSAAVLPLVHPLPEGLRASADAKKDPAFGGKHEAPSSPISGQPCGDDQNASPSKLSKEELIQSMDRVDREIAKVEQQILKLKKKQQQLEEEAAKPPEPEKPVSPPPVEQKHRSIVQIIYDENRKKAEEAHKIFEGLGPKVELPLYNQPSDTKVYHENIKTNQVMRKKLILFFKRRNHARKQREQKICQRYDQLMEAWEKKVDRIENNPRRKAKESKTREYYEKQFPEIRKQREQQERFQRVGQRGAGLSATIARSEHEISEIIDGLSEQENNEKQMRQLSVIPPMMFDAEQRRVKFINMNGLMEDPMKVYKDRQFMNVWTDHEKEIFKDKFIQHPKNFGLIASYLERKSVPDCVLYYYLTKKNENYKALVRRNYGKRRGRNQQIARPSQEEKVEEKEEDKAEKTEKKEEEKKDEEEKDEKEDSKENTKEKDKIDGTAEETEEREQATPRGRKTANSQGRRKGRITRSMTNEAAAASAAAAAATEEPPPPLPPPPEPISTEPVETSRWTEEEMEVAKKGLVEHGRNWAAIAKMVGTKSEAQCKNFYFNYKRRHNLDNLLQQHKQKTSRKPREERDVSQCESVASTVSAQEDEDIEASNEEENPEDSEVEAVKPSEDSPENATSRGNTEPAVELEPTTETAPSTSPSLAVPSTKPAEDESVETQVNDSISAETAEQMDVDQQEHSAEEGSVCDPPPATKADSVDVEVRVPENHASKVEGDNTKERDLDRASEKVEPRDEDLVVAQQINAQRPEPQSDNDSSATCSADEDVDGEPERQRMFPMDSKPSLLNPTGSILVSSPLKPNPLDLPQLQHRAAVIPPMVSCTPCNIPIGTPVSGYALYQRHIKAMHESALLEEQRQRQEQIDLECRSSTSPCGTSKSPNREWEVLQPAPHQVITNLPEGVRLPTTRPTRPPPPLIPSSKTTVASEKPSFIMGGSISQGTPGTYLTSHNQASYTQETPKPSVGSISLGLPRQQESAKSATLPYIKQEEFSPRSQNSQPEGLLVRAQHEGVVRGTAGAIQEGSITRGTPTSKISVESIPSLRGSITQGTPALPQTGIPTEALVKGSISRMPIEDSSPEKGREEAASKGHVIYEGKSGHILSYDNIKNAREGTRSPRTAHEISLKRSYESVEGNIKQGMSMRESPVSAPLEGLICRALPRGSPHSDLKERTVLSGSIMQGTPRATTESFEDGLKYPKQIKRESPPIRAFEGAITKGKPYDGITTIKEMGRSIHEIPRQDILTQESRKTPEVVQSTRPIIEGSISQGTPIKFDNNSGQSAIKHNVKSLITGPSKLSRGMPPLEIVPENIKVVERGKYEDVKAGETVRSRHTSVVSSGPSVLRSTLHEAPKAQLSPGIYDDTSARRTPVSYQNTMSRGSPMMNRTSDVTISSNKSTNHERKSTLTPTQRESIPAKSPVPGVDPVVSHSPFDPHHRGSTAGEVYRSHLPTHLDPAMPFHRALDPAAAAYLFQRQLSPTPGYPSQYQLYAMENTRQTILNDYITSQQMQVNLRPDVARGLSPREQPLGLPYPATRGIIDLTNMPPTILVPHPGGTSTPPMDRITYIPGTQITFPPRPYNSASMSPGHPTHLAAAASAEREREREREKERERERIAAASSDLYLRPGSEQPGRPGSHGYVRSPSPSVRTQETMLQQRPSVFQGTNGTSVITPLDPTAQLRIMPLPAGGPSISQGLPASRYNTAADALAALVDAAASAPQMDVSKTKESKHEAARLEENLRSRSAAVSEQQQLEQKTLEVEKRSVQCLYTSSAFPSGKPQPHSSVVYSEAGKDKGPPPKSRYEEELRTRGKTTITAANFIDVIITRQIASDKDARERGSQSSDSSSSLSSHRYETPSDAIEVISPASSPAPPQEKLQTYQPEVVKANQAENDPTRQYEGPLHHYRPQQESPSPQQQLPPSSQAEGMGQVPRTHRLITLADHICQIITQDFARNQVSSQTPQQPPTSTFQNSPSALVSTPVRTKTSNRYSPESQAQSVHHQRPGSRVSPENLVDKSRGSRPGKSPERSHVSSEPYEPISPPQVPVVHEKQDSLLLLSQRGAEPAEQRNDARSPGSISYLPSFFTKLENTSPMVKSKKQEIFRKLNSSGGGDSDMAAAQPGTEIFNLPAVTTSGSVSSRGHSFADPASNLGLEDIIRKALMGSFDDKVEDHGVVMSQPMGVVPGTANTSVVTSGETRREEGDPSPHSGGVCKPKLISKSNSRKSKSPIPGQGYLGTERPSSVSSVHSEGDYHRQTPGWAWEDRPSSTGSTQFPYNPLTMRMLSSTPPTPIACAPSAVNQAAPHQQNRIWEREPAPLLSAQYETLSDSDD
UniProt P03372: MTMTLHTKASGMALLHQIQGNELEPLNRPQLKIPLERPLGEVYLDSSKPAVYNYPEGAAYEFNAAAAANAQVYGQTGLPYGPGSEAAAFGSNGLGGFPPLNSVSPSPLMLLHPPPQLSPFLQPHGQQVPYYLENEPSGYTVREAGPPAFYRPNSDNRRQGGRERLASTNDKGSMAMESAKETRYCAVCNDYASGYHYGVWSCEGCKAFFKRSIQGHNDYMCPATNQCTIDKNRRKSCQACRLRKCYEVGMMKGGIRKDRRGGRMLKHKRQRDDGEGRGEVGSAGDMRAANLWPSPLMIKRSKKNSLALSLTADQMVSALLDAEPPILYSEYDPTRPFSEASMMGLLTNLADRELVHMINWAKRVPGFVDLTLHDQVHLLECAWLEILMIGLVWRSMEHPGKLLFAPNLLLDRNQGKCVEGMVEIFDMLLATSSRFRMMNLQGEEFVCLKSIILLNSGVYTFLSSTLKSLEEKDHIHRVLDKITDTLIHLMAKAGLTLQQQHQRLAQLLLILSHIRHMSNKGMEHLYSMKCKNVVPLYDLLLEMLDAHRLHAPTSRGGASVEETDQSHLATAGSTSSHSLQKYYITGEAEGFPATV

target: HA-tagged MAF short isoform (pCMV5, N-terminal 2xHA) (UniProt O75444); test: co-IP; MCF7 cells 48 h after transfection with pCMV5 HA-MAF (S or L) or empty plasmid; 500 µg lysate (50 mM Tris-HCl pH 7.4, 100 mM NaCl, 1% Triton X-100) on anti-HA magnetic beads overnight at 4 °C; immunoblot of endogenous partners; also after ER-PROTAC (KDM1A) and in cells with scrambled or KDM1A-targeted shRNA (ER)

binding, binds:
NCoA3 (from UniProt Q9Y6Q9 1-1424), NCoR1 (from UniProt O75376 1-2440), oestrogen receptor alpha (from UniProt P03372 1-595)
